The match of structure and compound is tentative. Bounds are passed on as bounds.

One series relates to Balb/c3t3 fibroblasts. The conditions noted are these: tested form: HCl.
Series [1] concerns MDA-MB-231 breast cancer cell lines. The experiment in a line: Evaluation of inhibition on cell growth (MTS). The conditions noted are these: read-out: MDA-MB-231 (GI50), 120 hours, tested form: HCl.
Another series has as its system Hs27 fibroblasts. The conditions noted are these: tested form: HCl.

What is called GI50 is the concentration that inhibits growth by half. In the case of `CN[C@@H](C)C(=O)N[C@H](C(=O)N1CCC[C@H](C(=O)Nc2cc3c(Nc4ccc(F)c(Cl)c4F)ncnc3cc2OC)C1)C(C)(C)C`, the concentration for 50% growth inhibition (GI50) in the series on Balb/c3t3 fibroblasts was over 10 µM; in series [1], over 1000 nM; with Hs27 fibroblasts, over 10 µM.
